From paper PMC5534435 come the findings set out here.

Sequences of proteins named here, by UniProt entry; tags and fusion partners are left off. Residues count along the entry.
UniProt Q13153: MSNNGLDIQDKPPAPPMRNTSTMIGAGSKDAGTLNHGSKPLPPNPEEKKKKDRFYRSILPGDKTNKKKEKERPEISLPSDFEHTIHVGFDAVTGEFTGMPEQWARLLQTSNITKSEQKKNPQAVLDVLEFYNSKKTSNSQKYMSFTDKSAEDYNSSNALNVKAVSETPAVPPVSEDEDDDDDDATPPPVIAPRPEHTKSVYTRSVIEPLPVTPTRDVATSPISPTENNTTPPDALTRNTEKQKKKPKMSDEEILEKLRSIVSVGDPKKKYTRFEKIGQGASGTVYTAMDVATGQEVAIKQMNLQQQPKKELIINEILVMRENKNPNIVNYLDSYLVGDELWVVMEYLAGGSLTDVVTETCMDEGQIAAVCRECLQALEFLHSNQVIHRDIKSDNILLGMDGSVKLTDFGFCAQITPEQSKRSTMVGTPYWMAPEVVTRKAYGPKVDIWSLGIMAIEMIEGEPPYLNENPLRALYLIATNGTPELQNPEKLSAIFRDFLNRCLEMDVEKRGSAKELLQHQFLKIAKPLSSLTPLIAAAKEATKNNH
UniProt O55005, residues 26-1651: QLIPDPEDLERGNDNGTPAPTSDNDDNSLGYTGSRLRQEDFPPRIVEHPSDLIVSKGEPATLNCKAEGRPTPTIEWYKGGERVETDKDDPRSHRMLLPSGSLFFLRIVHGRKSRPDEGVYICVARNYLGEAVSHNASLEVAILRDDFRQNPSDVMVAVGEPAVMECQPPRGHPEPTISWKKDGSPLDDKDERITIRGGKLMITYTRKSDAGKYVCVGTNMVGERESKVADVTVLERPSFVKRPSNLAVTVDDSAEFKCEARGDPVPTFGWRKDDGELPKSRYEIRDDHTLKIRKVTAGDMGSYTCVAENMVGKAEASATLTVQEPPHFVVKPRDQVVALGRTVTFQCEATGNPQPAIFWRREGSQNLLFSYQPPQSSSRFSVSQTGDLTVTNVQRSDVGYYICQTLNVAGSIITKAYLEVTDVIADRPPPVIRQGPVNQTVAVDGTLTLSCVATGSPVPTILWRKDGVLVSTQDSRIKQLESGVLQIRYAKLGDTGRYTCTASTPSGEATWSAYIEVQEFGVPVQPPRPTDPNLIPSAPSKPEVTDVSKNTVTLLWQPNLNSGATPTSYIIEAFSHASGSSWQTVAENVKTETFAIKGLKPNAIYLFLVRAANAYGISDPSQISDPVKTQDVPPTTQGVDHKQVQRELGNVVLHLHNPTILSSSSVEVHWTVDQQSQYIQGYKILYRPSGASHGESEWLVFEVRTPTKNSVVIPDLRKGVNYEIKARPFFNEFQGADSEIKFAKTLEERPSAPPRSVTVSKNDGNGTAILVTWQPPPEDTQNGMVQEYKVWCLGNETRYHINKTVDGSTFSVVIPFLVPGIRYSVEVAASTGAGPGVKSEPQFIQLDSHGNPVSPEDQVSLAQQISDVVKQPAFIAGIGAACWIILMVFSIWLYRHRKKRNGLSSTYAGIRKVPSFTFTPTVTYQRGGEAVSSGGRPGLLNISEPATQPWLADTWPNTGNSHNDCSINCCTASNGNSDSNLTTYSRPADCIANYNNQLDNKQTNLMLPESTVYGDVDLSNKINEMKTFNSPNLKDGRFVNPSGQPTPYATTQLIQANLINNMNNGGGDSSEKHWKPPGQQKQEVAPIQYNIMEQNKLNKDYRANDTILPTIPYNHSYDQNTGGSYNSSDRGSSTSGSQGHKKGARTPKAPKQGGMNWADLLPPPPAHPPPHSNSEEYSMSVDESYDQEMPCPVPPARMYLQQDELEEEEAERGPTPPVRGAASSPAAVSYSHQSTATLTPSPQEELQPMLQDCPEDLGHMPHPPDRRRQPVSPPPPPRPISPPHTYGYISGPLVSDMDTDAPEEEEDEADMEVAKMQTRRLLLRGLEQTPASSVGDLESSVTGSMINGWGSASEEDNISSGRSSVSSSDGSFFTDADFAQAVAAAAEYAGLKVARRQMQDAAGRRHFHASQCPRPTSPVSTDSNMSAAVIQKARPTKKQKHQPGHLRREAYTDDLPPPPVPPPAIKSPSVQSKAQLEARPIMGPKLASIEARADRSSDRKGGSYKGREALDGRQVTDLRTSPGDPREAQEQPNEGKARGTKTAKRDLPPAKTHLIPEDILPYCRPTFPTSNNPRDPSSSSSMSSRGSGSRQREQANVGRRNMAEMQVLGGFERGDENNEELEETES

Assay [1] addresses Myc-Pak1 (UniProt Q13153). In words: co-IP; HEK293 cells transfected with the two constructs (single transfections as controls); IP with APPc, anti-HA or anti-Myc antibody, Western blot. (In general: A western blot detects proteins with antibodies after separation by electrophoresis.)
Assay [2] concerns the target Full-length (FL) human APP695 (human) (UniProt P05067). The assay is described as above.
The target in assay [3] is Rat Robo1 tagged with the hemagglutinin (Robo1-HA) (rat) (UniProt O55005). Described as above.
For assay [4], the target named is GST-APPE1 fusion protein (amino acids 22-189 of APP extracellular E1 domain) (UniProt P05067). In words: pull-down; purified GST or GST-APPE1 on glutathione agarose beads incubated with CM from HEK293 cells overexpressing Myc-tagged Slit2, 3 h at 4°C; anti-Myc Western blot; only the target purified.

These are yes or no findings as the source states them, for the method shown. In cells and extracts the contact can be indirect. Some binding calls cover weakened binding; strength is not graded here. Sequences can lack the tags named with a protein.

B1: HA-Fe65 (protein, UniProt O00213 1-710)
chain: MSVPSSLSQSAINANSHGGPALSLPLPLHAAHNQLLNAKLQATAVGPKDLRSAMGEGGGPEPGPANAKWLKEGQNQLRRAATAHRDQNRNVTLTLAEEASQEPEMAPLGPKGLIHLYSELELSAHNAANRGLRGPGLIISTQEQGPDEGEEKAAGEAEEEEEDDDDEEEEEDLSSPPGLPEPLESVEAPPRPQALTDGPREHSKSASLLFGMRNSAASDEDSSWATLSQGSPSYGSPEDTDSFWNPNAFETDSDLPAGWMRVQDTSGTYYWHIPTGTTQWEPPGRASPSQGSSPQEESQLTWTGFAHGEGFEDGEFWKDEPSDEAPMELGLKEPEEGTLTFPAQSLSPEPLPQEEEKLPPRNTNPGIKCFAVRSLGWVEMTEEELAPGRSSVAVNNCIRQLSYHKNNLHDPMSGGWGEGKDLLLQLEDETLKLVEPQSQALLHAQPIISIRVWGVGRDSGRERDFAYVARDKLTQMLKCHVFRCEAPAKNIATSLHEICSKIMAERRNARCLVNGLSLDHSKLVDVPFQVEFPAPKNELVQKFQVYYLGNVPVAKPVGVDVINGALESVLSSSSREQWTPSHVSVAPATLTILHQQTEAVLGECRVRFLSFLAVGRDVHTFAFIMAAGPASFCCHMFWCEPNAASLSEAVQAACMLRYQKCLDARSQASTSCLPAPPAESVARRVGWTVRRGVQSLWGSLKPKRLGAHTP
As for B1, the binding result in assay [1] was “binds”.

B2: Human Slit2 tagged with c-Myc (Slit2-Myc) (ligand, UniProt O94813 31-1529)
chain: QCSCSGSTVDCHGLALRSVPRNIPRNTERLDLNGNNITRITKTDFAGLRHLRVLQLMENKISTIERGAFQDLKELERLRLNRNHLQLFPELLFLGTAKLYRLDLSENQIQAIPRKAFRGAVDIKNLQLDYNQISCIEDGAFRALRDLEVLTLNNNNITRLSVASFNHMPKLRTFRLHSNNLYCDCHLAWLSDWLRQRPRVGLYTQCMGPSHLRGHNVAEVQKREFVCSGHQSFMAPSCSVLHCPAACTCSNNIVDCRGKGLTEIPTNLPETITEIRLEQNTIKVIPPGAFSPYKKLRRIDLSNNQISELAPDAFQGLRSLNSLVLYGNKITELPKSLFEGLFSLQLLLLNANKINCLRVDAFQDLHNLNLLSLYDNKLQTIAKGTFSPLRAIQTMHLAQNPFICDCHLKWLADYLHTNPIETSGARCTSPRRLANKRIGQIKSKKFRCSAKEQYFIPGTEDYRSKLSGDCFADLACPEKCRCEGTTVDCSNQKLNKIPEHIPQYTAELRLNNNEFTVLEATGIFKKLPQLRKINFSNNKITDIEEGAFEGASGVNEILLTSNRLENVQHKMFKGLESLKTLMLRSNRITCVGNDSFIGLSSVRLLSLYDNQITTVAPGAFDTLHSLSTLNLLANPFNCNCYLAWLGEWLRKKRIVTGNPRCQKPYFLKEIPIQDVAIQDFTCDDGNDDNSCSPLSRCPTECTCLDTVVRCSNKGLKVLPKGIPRDVTELYLDGNQFTLVPKELSNYKHLTLIDLSNNRISTLSNQSFSNMTQLLTLILSYNRLRCIPPRTFDGLKSLRLLSLHGNDISVVPEGAFNDLSALSHLAIGANPLYCDCNMQWLSDWVKSEYKEPGIARCAGPGEMADKLLLTTPSKKFTCQGPVDVNILAKCNPCLSNPCKNDGTCNSDPVDFYRCTCPYGFKGQDCDVPIHACISNPCKHGGTCHLKEGEEDGFWCICADGFEGENCEVNVDDCEDNDCENNSTCVDGINNYTCLCPPEYTGELCEEKLDFCAQDLNPCQHDSKCILTPKGFKCDCTPGYVGEHCDIDFDDCQDNKCKNGAHCTDAVNGYTCICPEGYSGLFCEFSPPMVLPRTSPCDNFDCQNGAQCIVRINEPICQCLPGYQGEKCEKLVSVNFINKESYLQIPSAKVRPQTNITLQIATDEDSGILLYKGDKDHIAVELYRGRVRASYDTGSHPASAIYSVETINDGNFHIVELLALDQSLSLSVDGGNPKIITNLSKQSTLNFDSPLYVGGMPGKSNVASLRQAPGQNGTSFHGCIRNLYINSELQDFQKVPMQTGILPGCEPCHKKVCAHGTCQPSSQAGFTCECQEGWMGPLCDQRTNDPCLGNKCVHGTCLPINAFSYSCKCLEGHGGVLCDEEEDLFNPCQAIKCKHGKCRLSGLGQPYCECSSGYTGDSCDREISCRGERIRDYYQKQQGYAACQTTKKVSRLECRGGCAGGQCCGPLRSKRRKYSFECTDGSSFVDEVEKVVKCGCTRCVS
As to B2, the binding result in assay [2], in assay [3] and in assay [4] was “binds” throughout.
